# From the supplement of paper PMC7024190
# Structures can show the parent of a compound that is named as a salt. This is one part of the list. This data set is noisy: repeats of one test often differ as much as different tests do.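 Human embryonic kidney cells were transiently transfected with a plasmid bearing a Renilla luciferase gene under the HSV-TK promoter. This first-round screen tests roughly ten thousand compounds for ones that increase reporter output.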
# Tested on: HEK 293FT
# Assay: log relative Renilla luciferase luminescence (reporter expression vs reference, reference not stated) (log (base not stated)); higher = higher recombinant reporter expression
# Details: 10 µM; time after transfection 48 h
row,Structure (SMILES),log
1,N=C(N)SCCc1c[nH]cn1 [Imetit dihydrobromide],0.588
2,CCCCc1nc2ccn(Cc3cccs3)c(=O)c2n1Cc1ccc(-c2ccccc2-c2nn[nH]n2)cc1,0.0438
3,CCCn1c(=O)c2[nH]c(C3CCCC3)nc2n(CCC)c1=O,0.16
4,CCS(=O)(=O)N1CCC[C@@H]2CN3CCc4cc(OC)ccc4[C@@H]3C[C@@H]21,0.0792
5,COc1cc2ncnc(Nc3ccc(F)c(Cl)c3)c2cc1OCCCN1CCOCC1 [Iressa],-0.0332
6,CC(=O)O[C@@H]1C[C@H]2C(C)(C)C(=O)C=C[C@]2(C)[C@H]2CC[C@@]3(C)[C@H](c4ccoc4)OC(=O)[C@H]4O[C@]43[C@@]21C [Gedunin],-1.52
7,COc1cc(NC(=O)c2ccccn2)ccc1Cl,-0.13
8,CN(C)CCCSC(=N)N [Dimaprit dihydrochloride],0.036
9,NC(=O)N1C(=O)/C(=C(\O)c2cccs2)c2cc(Cl)ccc21 [Tenidap],0.0285
10,CC1Nc2ccc(Cl)cc2S(=O)(=O)N1 (centres undefined),0.12
11,O=S(=O)(c1cccc2c(Cl)cccc12)N1CCCNCC1 [ML 9 hydrochloride],0.108
12,Cc1ccc(C(=O)Cn2c3c(sc2=N)CCCC3)cc1 [Pifithrin- α hydrobromide],-0.0416
13,CC1c2ccccc2CN1CC1=NCCN1 (centres undefined),0.0889
14,Cn1cnc2c(NCc3ccccc3)nc(NCCO)nc21 [Olomoucine],-0.162
15,CCN(CC)CCOC(=O)C1(c2ccc([N+](=O)[O-])cc2)CCCC1 [Nitrocaramiphen hydrochloride],0.126
16,CC[N+](CC)(CC)CC(=O)Nc1c(C)cccc1C [QX 314 chloride],-0.195
17,CN/C(=N\CCSCc1nc[nH]c1C)NC#N [Cimetidine],0.0656
18,CCc1nn(CCCN2CCN(c3cccc(Cl)c3)CC2)c(=O)n1CCOc1ccccc1 [Nefazodone hydrochloride],-0.0748
19,COc1ccc2c(c1OC)C(=O)O[C@@H]2[C@H]1c2c(cc3c(c2OC)OCO3)CCN1C [Noscapine hydrochloride],0.114
20,COc1cc2c(Nc3ccc(NC(=O)c4ccccc4)cc3)ncnc2cc1OCCCN1CCOCC1,-1.64
21,Cc1ccc2c(c1)C(=O)C1(O)CCN(c3ccccc3)C1=N2 (racemic) [(±)-Blebbistatin],-0.298
22,CC(=O)N[C@@H](CC(=O)N[C@@H](CCC(=O)O)C(=O)O)C(=O)O [Spaglumic acid],0.0984
23,CCn1c(=O)[nH]c2ccccc21,-0.147
24,Cn1cc(C2=C(c3cn(CCCSC(=N)N)c4ccccc34)C(=O)NC2=O)c2ccccc21 [Ro 31-8220 mesylate],0.00213

# Of the compounds above, these have a thiophene ring, fused or not.
row,Structure (SMILES),log
2,CCCCc1nc2ccn(Cc3cccs3)c(=O)c2n1Cc1ccc(-c2ccccc2-c2nn[nH]n2)cc1,0.0438
9,NC(=O)N1C(=O)/C(=C(\O)c2cccs2)c2cc(Cl)ccc21 [Tenidap],0.0285
